No constants are given. Whether binding was seen depends on the method and setting. In cells and extracts the contact can be indirect. These calls come from enrichment with a bait or labelling near it, and not all partners need be listed.
Target: S16-phosphorylated α5 (human (endogenous in 293T)) (UniProt P28066)
Assay: affinity purification with mass spectrometry; anti-α5-pS16 antibody and Protein G agarose, 4 °C, 1 h, lysates of 293T cells treated with nocodazole (100 ng/mL, 16 h) against aphidicolin (10 µM, 12 h) as control; label-free LC-MS/MS

Chains of the proteins cited; added tags and fusions are not shown.
UniProt P28066: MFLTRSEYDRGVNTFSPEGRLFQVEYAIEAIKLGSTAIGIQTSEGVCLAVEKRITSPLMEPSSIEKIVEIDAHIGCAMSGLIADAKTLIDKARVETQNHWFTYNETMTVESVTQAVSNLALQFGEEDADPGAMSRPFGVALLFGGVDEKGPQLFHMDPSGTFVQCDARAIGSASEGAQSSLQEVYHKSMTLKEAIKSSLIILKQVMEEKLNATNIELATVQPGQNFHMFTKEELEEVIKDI

binding: binds
Substance: Polo-like kinase 1 (PLK1) (from UniProt P53350 1-603) (enzyme)

Source: publication PMC8620773
